# No constants are given. Whether binding was seen depends on the method and setting. Some entries that bind do so weakly or less than the wild type.
# Chains of the proteins cited; added tags and fusions are not shown. Residues count along the entry.
# UniProt Q02223, residues 1-54: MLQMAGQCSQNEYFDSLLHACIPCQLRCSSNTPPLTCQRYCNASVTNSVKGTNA
# B1: 항-BCMA sdAb No.11 (VHH)
# VHH: KLEESGGGSVQTGGSLRLTCAASGSISRLDNMGWFRQAPGKERELVAAINSKSNKTNYADSVKGRFTISRDNAKNTVDLQMNSLKPEDTAIYYCANWSFDKHRAYWGQGTQVTVSS
# B2: 항-BCMA sdAb No.7 (VHH)
# VHH: KLEESGGGSVQTGGSLRLTCAASGSIFSSGFMAWFRQAPGKEREFVSGISWRGDSTGYADSVKGRFTISRDNAKNTVDLQMNSLKPEDTAIYYCAARGTDTAYWGQGTQVTVSS
# B3: 항-BCMA sdAb No.19 (VHH)
# VHH: KLEESGGGSVQTGGSLRLTCAASGIIFSDDAIGWFRQAPGKERELVSLIDSKSSTYYADSVKGRFTISRDNAKNTVDLQMNSLKPEDTAIYYCNDHKRRQAMEYWGQGTQVTVSS
# Molecular target: BCMA (antigen used for phage panning and ELISA screening) (UniProt Q02223)
# Test: ELISA screening of phage clones after panning on BCMA
row,binding,Binder
1,binds,B1
2,binds,B2
3,binds,B3
